Experimental data reported in patent US10066159B2, “Composite nanoparticles including a phthalic acid derivative” (3M INNOVATIVE PROPERTIES COMPANY, priority 2013, dated 2018).

Test: Quantum yield of ligand-treated green InP nanocrystals, Method 1 (toluene, Quantaurus spectrometer)
Details: ratio of QY of example ligand solution to QY of Reference 1 (DDSA), Stock Solution 1, toluene, 90° C. for 1.5 hours, excitation 440 nm

Compound | Quantum Yield (QY) relative to DDSA
CCCCCCOc1ccc(C(=O)O)c(C(=O)O)c1 [Example 1, 4-hexyloxyphthalic Acid] | 0.96
CCCCCCCCOc1cc(C(=O)O)c(C(=O)O)cc1OCCCCCCCC [Example 2, 4,5-dioctyloxyphthalic Acid] | 0.82
